Test results reported in paper PMC8917353.
Numbering of substitutions follows the chain as printed. No constants are given. Whether binding was seen depends on the method and setting. Binding seen in cells or lysates may run through a third protein. Some binding calls cover weakened binding; strength is not graded here.

By UniProt entry, the sequences of proteins in these tests, tags left out.
UniProt P62834: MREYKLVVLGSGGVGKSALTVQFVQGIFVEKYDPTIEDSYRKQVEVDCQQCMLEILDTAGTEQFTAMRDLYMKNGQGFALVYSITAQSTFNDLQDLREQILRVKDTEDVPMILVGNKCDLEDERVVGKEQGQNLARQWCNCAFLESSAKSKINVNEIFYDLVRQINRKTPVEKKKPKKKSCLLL
UniProt Q9BSQ5: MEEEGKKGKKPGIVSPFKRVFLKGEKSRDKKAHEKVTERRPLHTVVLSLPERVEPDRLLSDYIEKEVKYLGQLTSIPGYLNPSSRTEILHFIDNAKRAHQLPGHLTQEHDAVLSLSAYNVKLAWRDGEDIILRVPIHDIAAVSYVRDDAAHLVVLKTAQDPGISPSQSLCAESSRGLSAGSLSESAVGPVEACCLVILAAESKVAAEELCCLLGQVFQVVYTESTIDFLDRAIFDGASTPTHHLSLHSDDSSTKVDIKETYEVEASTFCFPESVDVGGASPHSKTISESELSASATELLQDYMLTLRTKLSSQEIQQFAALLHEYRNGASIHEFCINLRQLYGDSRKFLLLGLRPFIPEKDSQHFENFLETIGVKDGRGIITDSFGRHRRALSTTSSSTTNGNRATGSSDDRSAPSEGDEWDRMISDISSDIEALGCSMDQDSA

How the values were obtained:
[1] = target: T1, membrane-targeted mCherry-KRIT1 192APAA195 R452E with the Rap1 polybasic region and CAAX box (…) at the C-terminus (UniProt O00522); assay: co-IP; HEK293A co-transfected with mCherry-KRIT1 construct and CCM2-Myc/His; 300 µg lysate, anti-mCherry on Protein G agarose, overnight 4°C; blot for Myc
T1 sequence (chain, C-terminal geranylgeranylation (GG) at the CAAX box): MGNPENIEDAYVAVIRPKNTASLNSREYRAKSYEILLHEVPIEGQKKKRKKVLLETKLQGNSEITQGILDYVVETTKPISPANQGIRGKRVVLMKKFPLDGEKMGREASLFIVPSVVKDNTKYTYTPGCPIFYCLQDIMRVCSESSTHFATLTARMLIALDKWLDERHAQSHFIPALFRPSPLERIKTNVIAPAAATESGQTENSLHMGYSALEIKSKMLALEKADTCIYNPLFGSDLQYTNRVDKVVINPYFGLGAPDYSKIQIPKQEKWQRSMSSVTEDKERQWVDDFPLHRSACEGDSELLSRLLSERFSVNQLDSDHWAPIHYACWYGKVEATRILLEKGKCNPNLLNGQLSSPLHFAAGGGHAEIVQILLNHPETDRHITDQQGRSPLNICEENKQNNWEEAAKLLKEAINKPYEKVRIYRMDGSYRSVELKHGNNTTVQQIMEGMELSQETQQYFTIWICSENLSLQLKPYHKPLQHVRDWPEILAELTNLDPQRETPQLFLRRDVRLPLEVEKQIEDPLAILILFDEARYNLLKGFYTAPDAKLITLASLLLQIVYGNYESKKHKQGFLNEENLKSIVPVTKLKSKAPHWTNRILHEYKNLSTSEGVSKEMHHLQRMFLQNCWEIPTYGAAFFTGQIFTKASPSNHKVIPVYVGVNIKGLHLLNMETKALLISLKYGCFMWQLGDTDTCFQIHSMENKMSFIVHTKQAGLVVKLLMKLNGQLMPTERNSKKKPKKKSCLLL

[2] = target: T2, mCherry-KRIT1 192NPAY195 to 192APAA195 (UniProt O00522); assay: as above
T2 sequence: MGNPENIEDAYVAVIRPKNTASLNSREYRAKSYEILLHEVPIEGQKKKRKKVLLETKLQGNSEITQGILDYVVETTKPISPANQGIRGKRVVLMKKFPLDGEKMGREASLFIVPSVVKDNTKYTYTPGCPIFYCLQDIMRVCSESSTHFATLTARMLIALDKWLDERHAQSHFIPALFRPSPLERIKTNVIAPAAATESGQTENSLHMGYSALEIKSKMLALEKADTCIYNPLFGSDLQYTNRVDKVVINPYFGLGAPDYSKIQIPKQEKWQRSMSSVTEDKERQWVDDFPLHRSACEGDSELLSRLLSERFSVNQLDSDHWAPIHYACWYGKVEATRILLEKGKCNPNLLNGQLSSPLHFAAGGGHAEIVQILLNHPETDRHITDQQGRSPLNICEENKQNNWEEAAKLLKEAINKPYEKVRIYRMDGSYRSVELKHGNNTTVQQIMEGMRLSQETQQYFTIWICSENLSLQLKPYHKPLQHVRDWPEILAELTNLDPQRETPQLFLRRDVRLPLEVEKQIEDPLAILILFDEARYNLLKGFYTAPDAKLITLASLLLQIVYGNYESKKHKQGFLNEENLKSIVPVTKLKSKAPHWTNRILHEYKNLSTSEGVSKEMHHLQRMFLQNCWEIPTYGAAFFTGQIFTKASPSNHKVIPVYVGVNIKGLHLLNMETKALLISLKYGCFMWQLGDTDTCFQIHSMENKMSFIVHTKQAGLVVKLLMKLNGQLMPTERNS

[3] = target: T3, mCherry-KRIT1 192APAA195 R452E (UniProt O00522); assay: as above
T3 sequence: T2 sequence with R452E

[4] = target: mCherry-tagged KRIT1 (WT) (UniProt O00522); assay: as above
GST-Rap1a = GST-Rap1a (UniProt P62834); assay: pull-down; 10 µg GST-Rap1a on GSH-Sepharose beads loaded with 1 mM GTPγS; 300 µg HEK293A lysate with mCherry-KRIT1 constructs, 5 mM DTT, 4°C overnight; washes in lysis buffer with 250 mM NaCl and 5 mM DTT; blot for KRIT1; only the target purified

binding [1]	binding [2]	binding [3]	binding [4]	binding (GST-Rap1a)	Substance
binds	binds	binds	binds		CCM2-Myc/His (from UniProt Q9BSQ5 1-444)
				binds weakly	mCherry-KRIT1-R452E (from UniProt O00522 1-736)
				binds	mCherry-tagged KRIT1 (WT) (from UniProt O00522 1-736)
